Assay results from the supplement of paper PMC6411743.
± gives the standard deviation of the averaged measurements. The entries are a selection whose mix differs from that of the whole data set.

Protein sequences, listed by entry. Tags and fused reporters are not part of them. Lines headed by an entry give the natural chain unless they say otherwise; changes in a name come on top.
UniProt Q16594, whole entry: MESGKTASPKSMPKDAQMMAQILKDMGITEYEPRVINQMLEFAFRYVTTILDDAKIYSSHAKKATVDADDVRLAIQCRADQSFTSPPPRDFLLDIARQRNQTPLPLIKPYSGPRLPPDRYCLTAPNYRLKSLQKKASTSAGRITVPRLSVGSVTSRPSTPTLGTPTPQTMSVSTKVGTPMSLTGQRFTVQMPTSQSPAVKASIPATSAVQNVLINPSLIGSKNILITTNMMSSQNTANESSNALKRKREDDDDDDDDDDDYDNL
UniProt Q15907: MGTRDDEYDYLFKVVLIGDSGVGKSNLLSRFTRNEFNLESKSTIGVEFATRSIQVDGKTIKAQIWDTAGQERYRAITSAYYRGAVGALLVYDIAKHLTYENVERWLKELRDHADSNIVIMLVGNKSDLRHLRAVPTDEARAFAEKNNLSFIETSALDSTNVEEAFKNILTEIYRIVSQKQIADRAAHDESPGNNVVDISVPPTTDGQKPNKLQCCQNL
UniProt Q15650: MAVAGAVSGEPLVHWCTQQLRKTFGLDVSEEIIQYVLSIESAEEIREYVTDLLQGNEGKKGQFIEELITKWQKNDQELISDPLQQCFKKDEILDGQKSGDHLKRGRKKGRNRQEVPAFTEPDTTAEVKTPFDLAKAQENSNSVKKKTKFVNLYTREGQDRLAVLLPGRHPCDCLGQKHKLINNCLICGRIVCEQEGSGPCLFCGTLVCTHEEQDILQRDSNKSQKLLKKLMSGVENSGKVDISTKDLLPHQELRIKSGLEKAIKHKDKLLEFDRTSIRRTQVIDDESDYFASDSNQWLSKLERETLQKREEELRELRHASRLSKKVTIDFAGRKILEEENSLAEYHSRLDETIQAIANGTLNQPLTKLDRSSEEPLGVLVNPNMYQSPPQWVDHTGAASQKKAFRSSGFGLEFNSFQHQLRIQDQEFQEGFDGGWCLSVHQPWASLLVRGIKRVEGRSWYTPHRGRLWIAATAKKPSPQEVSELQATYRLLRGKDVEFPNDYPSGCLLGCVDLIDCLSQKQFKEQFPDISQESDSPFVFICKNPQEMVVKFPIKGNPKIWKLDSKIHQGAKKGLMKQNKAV
UniProt Q15019: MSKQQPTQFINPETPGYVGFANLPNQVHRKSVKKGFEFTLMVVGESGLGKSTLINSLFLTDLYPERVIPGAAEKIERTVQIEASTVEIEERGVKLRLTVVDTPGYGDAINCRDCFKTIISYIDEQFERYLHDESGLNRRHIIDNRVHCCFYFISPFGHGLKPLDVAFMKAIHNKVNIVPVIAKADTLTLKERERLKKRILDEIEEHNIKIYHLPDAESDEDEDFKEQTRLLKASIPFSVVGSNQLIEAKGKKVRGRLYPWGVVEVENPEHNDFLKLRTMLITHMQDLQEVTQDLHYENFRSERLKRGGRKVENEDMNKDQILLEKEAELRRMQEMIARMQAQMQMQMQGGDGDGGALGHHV
UniProt Q15545, whole entry: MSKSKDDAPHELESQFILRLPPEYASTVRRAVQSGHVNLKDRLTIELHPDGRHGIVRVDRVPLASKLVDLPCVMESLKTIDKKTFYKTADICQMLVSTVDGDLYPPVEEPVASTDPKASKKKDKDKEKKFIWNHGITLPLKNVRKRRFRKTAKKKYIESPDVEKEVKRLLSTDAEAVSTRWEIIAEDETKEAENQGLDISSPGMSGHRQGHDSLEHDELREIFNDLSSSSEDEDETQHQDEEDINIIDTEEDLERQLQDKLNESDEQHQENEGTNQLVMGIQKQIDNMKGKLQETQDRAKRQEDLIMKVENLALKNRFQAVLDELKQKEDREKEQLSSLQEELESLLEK
UniProt Q15121, whole entry: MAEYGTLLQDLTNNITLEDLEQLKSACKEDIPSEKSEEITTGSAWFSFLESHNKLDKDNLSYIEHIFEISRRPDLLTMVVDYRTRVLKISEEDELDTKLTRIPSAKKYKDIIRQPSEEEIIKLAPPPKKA
UniProt Q15149: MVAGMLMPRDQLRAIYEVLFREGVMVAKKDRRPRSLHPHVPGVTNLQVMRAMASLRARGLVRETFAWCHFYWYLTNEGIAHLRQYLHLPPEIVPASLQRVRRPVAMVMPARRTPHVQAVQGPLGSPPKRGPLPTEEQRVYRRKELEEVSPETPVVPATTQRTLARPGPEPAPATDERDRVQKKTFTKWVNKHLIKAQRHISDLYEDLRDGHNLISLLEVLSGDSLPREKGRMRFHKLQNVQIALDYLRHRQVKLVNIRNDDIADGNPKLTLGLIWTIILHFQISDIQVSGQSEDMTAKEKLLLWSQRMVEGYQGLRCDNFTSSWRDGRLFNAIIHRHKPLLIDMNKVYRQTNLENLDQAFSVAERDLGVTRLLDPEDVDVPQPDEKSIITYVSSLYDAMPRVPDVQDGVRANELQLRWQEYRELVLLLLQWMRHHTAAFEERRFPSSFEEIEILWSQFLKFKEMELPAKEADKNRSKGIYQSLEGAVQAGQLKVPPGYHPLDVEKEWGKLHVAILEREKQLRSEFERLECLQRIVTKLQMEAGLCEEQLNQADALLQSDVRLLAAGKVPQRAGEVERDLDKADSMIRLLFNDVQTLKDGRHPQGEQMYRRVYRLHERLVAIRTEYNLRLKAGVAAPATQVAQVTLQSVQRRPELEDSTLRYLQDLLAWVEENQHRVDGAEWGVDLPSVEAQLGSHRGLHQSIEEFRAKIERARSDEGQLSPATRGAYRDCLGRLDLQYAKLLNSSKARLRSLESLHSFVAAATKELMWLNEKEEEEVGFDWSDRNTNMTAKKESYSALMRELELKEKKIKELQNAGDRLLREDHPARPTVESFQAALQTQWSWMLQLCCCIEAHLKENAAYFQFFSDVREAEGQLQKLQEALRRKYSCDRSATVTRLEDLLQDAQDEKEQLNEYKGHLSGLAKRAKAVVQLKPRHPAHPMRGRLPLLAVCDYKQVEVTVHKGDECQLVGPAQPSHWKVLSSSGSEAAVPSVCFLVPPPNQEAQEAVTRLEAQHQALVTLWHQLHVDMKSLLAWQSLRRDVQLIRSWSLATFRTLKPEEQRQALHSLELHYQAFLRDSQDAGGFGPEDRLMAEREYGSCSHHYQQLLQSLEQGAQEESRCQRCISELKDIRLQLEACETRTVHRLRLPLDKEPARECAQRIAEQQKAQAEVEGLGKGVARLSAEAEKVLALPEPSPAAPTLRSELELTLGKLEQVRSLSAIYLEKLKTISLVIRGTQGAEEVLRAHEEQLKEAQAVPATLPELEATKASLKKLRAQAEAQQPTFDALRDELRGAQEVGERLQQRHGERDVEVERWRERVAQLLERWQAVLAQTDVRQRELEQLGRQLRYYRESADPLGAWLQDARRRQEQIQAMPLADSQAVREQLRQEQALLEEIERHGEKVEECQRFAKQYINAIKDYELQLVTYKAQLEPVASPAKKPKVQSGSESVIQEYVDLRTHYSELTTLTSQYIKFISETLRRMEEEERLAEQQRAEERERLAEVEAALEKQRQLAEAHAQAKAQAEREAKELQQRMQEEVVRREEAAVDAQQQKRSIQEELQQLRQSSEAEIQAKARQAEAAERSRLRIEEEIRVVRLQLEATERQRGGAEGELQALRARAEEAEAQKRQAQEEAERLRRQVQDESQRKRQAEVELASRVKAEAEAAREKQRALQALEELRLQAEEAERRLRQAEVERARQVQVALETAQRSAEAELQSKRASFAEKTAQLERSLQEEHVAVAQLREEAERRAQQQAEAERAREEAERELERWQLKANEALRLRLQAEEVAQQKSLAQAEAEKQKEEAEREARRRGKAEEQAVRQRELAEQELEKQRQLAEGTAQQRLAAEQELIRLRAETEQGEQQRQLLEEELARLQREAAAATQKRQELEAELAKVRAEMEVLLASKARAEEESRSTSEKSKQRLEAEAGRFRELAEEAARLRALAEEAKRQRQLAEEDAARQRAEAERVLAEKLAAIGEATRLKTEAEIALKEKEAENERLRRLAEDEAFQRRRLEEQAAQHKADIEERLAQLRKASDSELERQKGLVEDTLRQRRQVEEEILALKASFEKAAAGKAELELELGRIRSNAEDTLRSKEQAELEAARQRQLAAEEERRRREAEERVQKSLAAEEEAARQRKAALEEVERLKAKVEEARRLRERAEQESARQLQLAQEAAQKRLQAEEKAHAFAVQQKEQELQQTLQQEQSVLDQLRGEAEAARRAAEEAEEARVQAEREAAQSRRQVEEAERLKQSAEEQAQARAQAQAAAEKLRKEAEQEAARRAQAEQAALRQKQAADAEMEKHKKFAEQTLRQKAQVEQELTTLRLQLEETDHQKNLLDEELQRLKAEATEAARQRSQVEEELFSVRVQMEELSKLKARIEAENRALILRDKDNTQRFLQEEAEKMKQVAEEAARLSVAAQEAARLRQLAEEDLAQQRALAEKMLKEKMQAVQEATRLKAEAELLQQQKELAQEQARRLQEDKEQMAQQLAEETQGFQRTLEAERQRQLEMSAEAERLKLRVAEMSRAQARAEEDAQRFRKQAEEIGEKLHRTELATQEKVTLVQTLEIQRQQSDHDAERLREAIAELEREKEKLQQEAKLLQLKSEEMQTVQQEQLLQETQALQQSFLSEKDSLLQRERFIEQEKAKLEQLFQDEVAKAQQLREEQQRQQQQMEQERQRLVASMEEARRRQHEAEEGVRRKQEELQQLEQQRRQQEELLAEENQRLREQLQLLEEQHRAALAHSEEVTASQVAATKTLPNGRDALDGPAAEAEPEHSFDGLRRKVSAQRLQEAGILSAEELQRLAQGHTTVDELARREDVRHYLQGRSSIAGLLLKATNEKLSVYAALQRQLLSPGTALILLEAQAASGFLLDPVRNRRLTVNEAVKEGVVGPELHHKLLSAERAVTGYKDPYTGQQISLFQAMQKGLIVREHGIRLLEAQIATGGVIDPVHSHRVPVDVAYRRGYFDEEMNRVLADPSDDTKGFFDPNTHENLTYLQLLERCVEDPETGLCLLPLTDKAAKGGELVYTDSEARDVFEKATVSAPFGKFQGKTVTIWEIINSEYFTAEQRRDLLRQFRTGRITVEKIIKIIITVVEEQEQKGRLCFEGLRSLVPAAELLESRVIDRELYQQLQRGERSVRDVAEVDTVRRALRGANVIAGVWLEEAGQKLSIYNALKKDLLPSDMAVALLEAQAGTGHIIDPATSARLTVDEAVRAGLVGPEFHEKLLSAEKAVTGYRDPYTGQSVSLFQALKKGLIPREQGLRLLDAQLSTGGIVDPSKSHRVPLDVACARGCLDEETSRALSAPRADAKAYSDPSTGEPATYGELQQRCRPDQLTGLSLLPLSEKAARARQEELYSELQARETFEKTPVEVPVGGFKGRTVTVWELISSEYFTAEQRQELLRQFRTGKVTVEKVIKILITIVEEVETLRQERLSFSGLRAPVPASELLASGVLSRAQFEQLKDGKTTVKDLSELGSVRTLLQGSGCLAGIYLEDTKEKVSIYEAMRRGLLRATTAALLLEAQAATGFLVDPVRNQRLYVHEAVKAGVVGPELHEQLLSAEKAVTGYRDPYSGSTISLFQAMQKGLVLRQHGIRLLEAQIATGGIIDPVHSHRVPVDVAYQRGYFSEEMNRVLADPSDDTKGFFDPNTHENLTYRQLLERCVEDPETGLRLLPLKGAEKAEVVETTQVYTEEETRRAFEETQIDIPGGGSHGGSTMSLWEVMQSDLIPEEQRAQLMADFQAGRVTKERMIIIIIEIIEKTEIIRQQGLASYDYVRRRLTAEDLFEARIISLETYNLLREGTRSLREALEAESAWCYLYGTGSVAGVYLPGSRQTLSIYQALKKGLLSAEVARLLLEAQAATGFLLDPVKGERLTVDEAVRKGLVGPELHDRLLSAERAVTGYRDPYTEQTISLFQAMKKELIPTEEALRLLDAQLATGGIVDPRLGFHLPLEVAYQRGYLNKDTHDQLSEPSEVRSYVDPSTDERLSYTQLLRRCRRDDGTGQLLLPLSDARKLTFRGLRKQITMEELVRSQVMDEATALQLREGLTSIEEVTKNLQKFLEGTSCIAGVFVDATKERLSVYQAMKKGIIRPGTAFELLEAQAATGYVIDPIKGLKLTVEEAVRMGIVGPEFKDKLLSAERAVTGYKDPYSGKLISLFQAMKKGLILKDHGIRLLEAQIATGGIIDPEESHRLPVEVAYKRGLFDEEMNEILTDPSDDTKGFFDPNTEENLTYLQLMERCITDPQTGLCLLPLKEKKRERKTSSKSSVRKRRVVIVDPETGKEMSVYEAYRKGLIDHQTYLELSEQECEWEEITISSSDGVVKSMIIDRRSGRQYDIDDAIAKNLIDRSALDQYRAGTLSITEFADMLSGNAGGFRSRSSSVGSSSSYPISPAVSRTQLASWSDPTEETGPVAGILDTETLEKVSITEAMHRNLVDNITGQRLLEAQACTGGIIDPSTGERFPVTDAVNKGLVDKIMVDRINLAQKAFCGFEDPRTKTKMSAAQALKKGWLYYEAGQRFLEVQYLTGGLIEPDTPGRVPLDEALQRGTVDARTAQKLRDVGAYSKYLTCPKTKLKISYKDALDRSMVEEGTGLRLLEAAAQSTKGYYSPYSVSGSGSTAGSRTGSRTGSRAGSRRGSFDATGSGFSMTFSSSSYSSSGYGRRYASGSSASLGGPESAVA

Compound: Nc1ncnc2c1ncn2[C@@H]1O[C@H](COP(=O)(O)OP(=O)(O)OP(=O)(O)O)[C@@H](O)[C@H]1O [adenosine triphosphate]
Experiment: NP40-soluble protein abundance relative to vehicle (solubility fold change) (ratio); higher = more soluble protein in presence of ATP
How it was run: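 Each value is a fold change relative to the detergent-processed vehicle, calculated per replicate from vsn-normalised intensities. Jurkat crude lysate received eight concentrations (0.1 to 10 mM) for 10 min at room temperature and 3 min at 37 °C, then was solubilised in 0.8% NP40 with benzonase (60 min, 4 °C). The ultracentrifuged supernatant was TMT-labelled and run by LC-MS/MS in three independent experiments.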

Target	NP40-soluble protein abundance (concentration: 1mM)	NP40-soluble protein abundance (concentration: 2mM)	NP40-soluble protein abundance (concentration: 4mM)	NP40-soluble protein abundance (concentration: 6mM)	NP40-soluble protein abundance (concentration: 8mM)	NP40-soluble protein abundance (concentration: 10mM)
UniProt Q15633 and related entries	0.945 ± 0.047	1.01 ± 0.042	1 ± 0.087	1 ± 0.066	0.953 ± 0.05	1.01 ± 0.024
RSU1 (UniProt Q15404)	1.02 ± 0.04	1 ± 0.035	0.989 ± 0.029	0.969 ± 0.049	0.969 ± 0.059	0.952 ± 0.037
TAF9 (UniProt Q16594)	1.08 ± 0.025	1.16 ± 0.031	1.01 ± 0.14	1.02 ± 0.24	1.09 ± 0.069	0.973 ± 0.093
UniProt Q14671 and related entries	0.91 ± 0.054	0.93 ± 0.038	0.902 ± 0.074	0.923 ± 0.043	0.896 ± 0.057	0.907 ± 0.062
TWISTNB (UniProt Q3B726)	1.08 ± 0.033	1.17 ± 0.087	1.24 ± 0.18	1.18 ± 0.28	1.25 ± 0.16	1.28 ± 0.12
RAB11B (UniProt Q15907)	1.07 ± 0.1	1.04 ± 0.053	1.03 ± 0.18	1.04 ± 0.096	0.982 ± 0.16	0.938 ± 0.12
UniProt Q15370	0.92 ± 0.05	0.946 ± 0.029	0.892 ± 0.029	0.947 ± 0.044	0.916 ± 0.0084	0.876 ± 0.05
UniProt Q15788 and related entries	0.935 ± 0.029	0.984 ± 0.059	0.942 ± 0.031	0.974 ± 0.031	0.913 ± 0.025	0.931 ± 0.04
PAFAH1B3 (UniProt Q15102)	0.958 ± 0.026	0.96 ± 0.021	0.931 ± 0.02	0.897 ± 0.066	0.9177 ± 0.0031	0.898 ± 0.051
ITPR2 (UniProt Q14571)	1.11 ± 0.11	1.07 ± 0.056	1.05 ± 0.059	1.04 ± 0.045	1.15 ± 0.031	1.12 ± 0.057
CBX2 (UniProt Q14781)	1.13 ± 0.028	1.14 ± 0.057	1.16 ± 0.016	1.39 ± 0.038	1.27 ± 0.12	1.49 ± 0.064
CD226 (UniProt Q15762)	1.06 ± 0.11	0.908 ± 0.056	0.967 ± 0.055	0.959 ± 0.048	0.952 ± 0.058	0.936 ± 0.098
STXBP2 (UniProt Q15833)	0.957 ± 0.033	0.962 ± 0.015	0.935 ± 0.046	0.951 ± 0.059	0.961 ± 0.035	0.945 ± 0.021
UniProt Q15650 and related entries	0.885 ± 0.13	0.833 ± 0.14	0.881 ± 0.18	0.916 ± 0.12	0.971 ± 0.14	1.04 ± 0.15
FSCN1 (UniProt Q16658)	1.05 ± 0.026	1.05 ± 0.049	1.08 ± 0.014	1 ± 0.062	1.06 ± 0.02	1.04 ± 0.075
UniProt Q14156 and related entries	1.02 ± 0.073	1.04 ± 0.04	1.02 ± 0.1	0.991 ± 0.042	1.17 ± 0.037	1.01 ± 0.058
UniProt Q3T8J9-3	1.03 ± 0.091	1.06 ± 0.052	1.038 ± 0.0039	1.1 ± 0.1	1.01 ± 0.036	1.05 ± 0.04
UniProt Q15555 and related entries	0.895 ± 0.049	0.8887 ± 0.0036	0.872 ± 0.017	0.952 ± 0.038	0.866 ± 0.032	0.909 ± 0.03
UniProt Q15019 and related entries	0.98 ± 0.019	0.966 ± 0.023	0.947 ± 0.033	0.987 ± 0.037	0.961 ± 0.042	0.943 ± 0.032
UniProt Q3ZAQ7 and related entries	0.875 ± 0.14	0.9547 ± 0.0026	0.977 ± 0.015	0.867 ± 0.12	0.905 ± 0.027	0.899 ± 0.059

At a glance, part of the list above.
Target	NP40-soluble protein abundance (concentration: 1mM)	NP40-soluble protein abundance (concentration: 2mM)	NP40-soluble protein abundance (concentration: 4mM)	NP40-soluble protein abundance (concentration: 6mM)	NP40-soluble protein abundance (concentration: 8mM)	NP40-soluble protein abundance (concentration: 10mM)
TWISTNB (UniProt Q3B726)	1.08 ± 0.033	1.17 ± 0.087	1.24 ± 0.18	1.18 ± 0.28	1.25 ± 0.16	1.28 ± 0.12
RAB11B (UniProt Q15907)	1.07 ± 0.1	1.04 ± 0.053	1.03 ± 0.18	1.04 ± 0.096	0.982 ± 0.16	0.938 ± 0.12
UniProt Q15370	0.92 ± 0.05	0.946 ± 0.029	0.892 ± 0.029	0.947 ± 0.044	0.916 ± 0.0084	0.876 ± 0.05

More results follow.

Target	NP40-soluble protein abundance (concentration: 1mM)	NP40-soluble protein abundance (concentration: 2mM)	NP40-soluble protein abundance (concentration: 4mM)	NP40-soluble protein abundance (concentration: 6mM)	NP40-soluble protein abundance (concentration: 8mM)	NP40-soluble protein abundance (concentration: 10mM)
ATP6AP1 (UniProt Q15904)	0.94 ± 0.067	0.945 ± 0.051	0.955 ± 0.046	0.909 ± 0.041	0.918 ± 0.063	0.933 ± 0.071
FZD2 (UniProt Q14332)	1.008 ± 0.01	0.99 ± 0.051	1.05 ± 0.1	0.956 ± 0.22	0.905 ± 0.064	1.01 ± 0.099
UniProt Q15291 and related entries	0.982 ± 0.03	0.996 ± 0.011	0.98 ± 0.04	0.972 ± 0.046	1 ± 0.022	1.01 ± 0.018
UniProt Q14865	1.01 ± 0.069	1 ± 0.12	1.04 ± 0.15	1.04 ± 0.15	0.994 ± 0.12	1.03 ± 0.12
TAF7 (UniProt Q15545)	1.03 ± 0.056	1.03 ± 0.02	1.03 ± 0.041	1.07 ± 0.11	1.04 ± 0.034	1.05 ± 0.016
WTAP (UniProt Q15007)	1.03 ± 0.085	1.03 ± 0.054	1.06 ± 0.056	1.1 ± 0.12	1.07 ± 0.042	1.01 ± 0.085
SMC1A (UniProt Q14683)	0.995 ± 0.022	0.978 ± 0.019	0.952 ± 0.022	0.998 ± 0.036	0.968 ± 0.011	0.962 ± 0.016
POLA2 (UniProt Q14181)	0.983 ± 0.067	0.95 ± 0.045	0.967 ± 0.042	0.946 ± 0.059	0.972 ± 0.027	0.982 ± 0.015
MCM6 (UniProt Q14566)	0.95 ± 0.054	0.945 ± 0.068	0.929 ± 0.057	0.883 ± 0.051	0.979 ± 0.034	0.915 ± 0.05
ADRM1 (UniProt Q16186)	0.8742 ± 0.007	0.843 ± 0.053	0.81 ± 0.055	0.826 ± 0.13	0.805 ± 0.077	0.817 ± 0.053
CEBPE (UniProt Q15744)	0.938 ± 0.05	0.887 ± 0.053	0.9 ± 0.03	0.921 ± 0.074	0.849 ± 0.037	0.821 ± 0.056
UniProt Q15652 and related entries	1.04 ± 0.022	1.03 ± 0.05	1.09 ± 0.032	1.13 ± 0.022	1.1 ± 0.071	1.12 ± 0.067
UniProt Q15796 and related entries	0.953 ± 0.024	0.975 ± 0.04	0.971 ± 0.025	0.973 ± 0.036	0.961 ± 0.03	0.944 ± 0.048
BECN1 (UniProt Q14457)	1 ± 0.049	0.975 ± 0.034	0.965 ± 0.038	0.972 ± 0.066	0.982 ± 0.022	0.98 ± 0.04
UniProt Q16864 and related entries	1.01 ± 0.072	1.01 ± 0.045	0.938 ± 0.036	1.02 ± 0.069	0.975 ± 0.051	0.913 ± 0.035
PPA1 (UniProt Q15181)	0.985 ± 0.014	0.993 ± 0.011	0.947 ± 0.027	1.01 ± 0.041	0.951 ± 0.045	0.948 ± 0.039
ZNF800 (UniProt Q2TB10)	1.03 ± 0.085	1.05 ± 0.098	1.19 ± 0.098	1.3 ± 0.06	1.33 ± 0.051	1.58 ± 0.3
MORF4L2 (UniProt Q15014)	1 ± 0.1	1.02 ± 0.082	1.06 ± 0.095	1.05 ± 0.071	1.05 ± 0.034	1.03 ± 0.078
VPS26B (UniProt Q4G0F5)	1.1 ± 0.27	1.06 ± 0.17	1.04 ± 0.16	0.919 ± 0.21	1.05 ± 0.13	1.03 ± 0.11
UniProt Q14696	0.961 ± 0.035	0.941 ± 0.021	0.927 ± 0.017	0.997 ± 0.036	0.924 ± 0.046	0.927 ± 0.014

Target	NP40-soluble protein abundance (concentration: 1mM)	NP40-soluble protein abundance (concentration: 2mM)	NP40-soluble protein abundance (concentration: 4mM)	NP40-soluble protein abundance (concentration: 6mM)	NP40-soluble protein abundance (concentration: 8mM)	NP40-soluble protein abundance (concentration: 10mM)
Q495G5 and related entries (UniProt Q8IVH4)	0.963 ± 0.028	0.963 ± 0.027	0.9373 ± 0.0068	0.898 ± 0.063	0.946 ± 0.028	0.957 ± 0.016
UniProt Q15262-2|Q15262-3|Q15262 and related entries	0.988 ± 0.028	0.972 ± 0.018	0.987 ± 0.021	0.967 ± 0.035	0.97 ± 0.023	0.944 ± 0.013
MLEC (UniProt Q14165)	0.984 ± 0.033	0.973 ± 0.016	0.9424 ± 0.0072	0.936 ± 0.074	0.942 ± 0.0095	0.954 ± 0.041
RRS1 (UniProt Q15050)	1.04 ± 0.088	0.979 ± 0.12	1.01 ± 0.084	0.994 ± 0.16	0.907 ± 0.081	0.957 ± 0.048
UniProt Q460N5 and related entries	1.01 ± 0.046	1.02 ± 0.035	1.01 ± 0.043	0.993 ± 0.054	1.02 ± 0.049	1.03 ± 0.028
UniProt Q14680 and related entries	1.21 ± 0.078	1.3 ± 0.071	1.23 ± 0.055	1.51 ± 0.26	1.33 ± 0.13	1.44 ± 0.17
PTPRCAP (UniProt Q14761)	0.823 ± 0.018	0.84 ± 0.054	0.839 ± 0.077	0.784 ± 0.083	0.795 ± 0.035	0.83 ± 0.061
UniProt Q15173 and related entries	1.05 ± 0.025	1.04 ± 0.014	0.9965 ± 0.0038	1.03 ± 0.044	0.927 ± 0.12	0.997 ± 0.18
UniProt Q14684 and related entries	1.01 ± 0.051	1.03 ± 0.017	1.05 ± 0.025	1.12 ± 0.021	1.089 ± 0.0036	1.1 ± 0.041
UniProt Q14534 and related entries	1 ± 0.092	1.02 ± 0.053	1.04 ± 0.076	0.934 ± 0.08	1.01 ± 0.043	1.05 ± 0.1
LBR (UniProt Q14739)	0.876 ± 0.075	0.824 ± 0.068	0.788 ± 0.063	0.782 ± 0.058	0.803 ± 0.067	0.767 ± 0.064
PUS10 (UniProt Q3MIT2)	1.03 ± 0.12	1.05 ± 0.14	1.04 ± 0.17	0.95 ± 0.2	1.059 ± 0.0083	1.05 ± 0.06
PPP2R5D (UniProt Q14738)	0.941 ± 0.055	0.955 ± 0.024	0.929 ± 0.037	0.968 ± 0.035	0.925 ± 0.014	0.93 ± 0.038
KIF14 (UniProt Q15058)	0.976 ± 0.12	1.01 ± 0.14	0.986 ± 0.12	1.03 ± 0.15	1 ± 0.11	1.05 ± 0.16
MORC3 (UniProt Q14149)	1.01 ± 0.027	1.02 ± 0.016	1.003 ± 0.006	1.007 ± 0.0076	0.993 ± 0.011	1.007 ± 0.0061
EIF3A (UniProt Q14152)	1.02 ± 0.077	1.06 ± 0.098	1.19 ± 0.11	1.35 ± 0.15	1.48 ± 0.11	1.64 ± 0.13
UniProt Q15121 and related entries	0.879 ± 0.062	0.873 ± 0.053	0.891 ± 0.063	0.911 ± 0.077	0.85 ± 0.029	0.804 ± 0.062
UniProt Q15149 and related entries	1.16 ± 0.032	1.16 ± 0.036	1.17 ± 0.043	1.18 ± 0.062	1.17 ± 0.038	1.17 ± 0.039
BRD3 (UniProt Q15059)	1.04 ± 0.071	1.07 ± 0.061	1.08 ± 0.045	1.14 ± 0.085	1.09 ± 0.015	1.1 ± 0.052
KIF22 (UniProt Q14807)	1.23 ± 0.085	1.27 ± 0.048	1.41 ± 0.12	1.4 ± 0.049	1.41 ± 0.11	1.5 ± 0.12
